The text below walks through data of article PMC5201015.

Amino acid sequences for entries named in this document (tags omitted).
UniProt Q15003: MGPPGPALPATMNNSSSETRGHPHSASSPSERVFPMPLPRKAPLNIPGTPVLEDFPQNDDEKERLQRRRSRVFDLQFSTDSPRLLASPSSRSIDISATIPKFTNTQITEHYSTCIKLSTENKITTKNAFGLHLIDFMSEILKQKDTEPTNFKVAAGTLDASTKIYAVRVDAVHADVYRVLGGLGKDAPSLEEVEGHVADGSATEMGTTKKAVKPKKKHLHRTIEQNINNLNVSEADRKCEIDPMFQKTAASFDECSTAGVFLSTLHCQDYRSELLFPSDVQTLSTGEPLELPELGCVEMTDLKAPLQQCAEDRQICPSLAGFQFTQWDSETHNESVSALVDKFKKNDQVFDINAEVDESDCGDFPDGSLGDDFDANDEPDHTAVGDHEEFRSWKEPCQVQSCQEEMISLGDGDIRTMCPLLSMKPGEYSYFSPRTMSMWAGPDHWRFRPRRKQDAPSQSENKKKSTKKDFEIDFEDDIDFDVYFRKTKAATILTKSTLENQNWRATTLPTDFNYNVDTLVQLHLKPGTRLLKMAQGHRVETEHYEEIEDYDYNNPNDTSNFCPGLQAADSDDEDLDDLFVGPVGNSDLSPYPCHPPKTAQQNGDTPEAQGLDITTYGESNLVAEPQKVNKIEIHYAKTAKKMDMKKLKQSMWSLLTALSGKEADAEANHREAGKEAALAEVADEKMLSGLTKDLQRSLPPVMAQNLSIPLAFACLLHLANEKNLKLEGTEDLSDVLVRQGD
UniProt P68371: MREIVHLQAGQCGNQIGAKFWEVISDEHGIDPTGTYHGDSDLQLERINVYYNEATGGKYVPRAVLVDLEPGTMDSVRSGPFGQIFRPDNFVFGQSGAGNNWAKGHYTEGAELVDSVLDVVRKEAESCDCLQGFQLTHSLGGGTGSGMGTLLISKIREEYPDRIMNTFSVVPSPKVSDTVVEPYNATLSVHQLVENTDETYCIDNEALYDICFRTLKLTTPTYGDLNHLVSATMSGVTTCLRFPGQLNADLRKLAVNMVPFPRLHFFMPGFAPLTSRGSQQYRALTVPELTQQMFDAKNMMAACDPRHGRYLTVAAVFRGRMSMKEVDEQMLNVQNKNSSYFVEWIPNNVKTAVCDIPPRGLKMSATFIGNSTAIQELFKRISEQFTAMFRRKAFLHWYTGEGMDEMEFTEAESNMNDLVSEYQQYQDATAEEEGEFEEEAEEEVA
UniProt P50990: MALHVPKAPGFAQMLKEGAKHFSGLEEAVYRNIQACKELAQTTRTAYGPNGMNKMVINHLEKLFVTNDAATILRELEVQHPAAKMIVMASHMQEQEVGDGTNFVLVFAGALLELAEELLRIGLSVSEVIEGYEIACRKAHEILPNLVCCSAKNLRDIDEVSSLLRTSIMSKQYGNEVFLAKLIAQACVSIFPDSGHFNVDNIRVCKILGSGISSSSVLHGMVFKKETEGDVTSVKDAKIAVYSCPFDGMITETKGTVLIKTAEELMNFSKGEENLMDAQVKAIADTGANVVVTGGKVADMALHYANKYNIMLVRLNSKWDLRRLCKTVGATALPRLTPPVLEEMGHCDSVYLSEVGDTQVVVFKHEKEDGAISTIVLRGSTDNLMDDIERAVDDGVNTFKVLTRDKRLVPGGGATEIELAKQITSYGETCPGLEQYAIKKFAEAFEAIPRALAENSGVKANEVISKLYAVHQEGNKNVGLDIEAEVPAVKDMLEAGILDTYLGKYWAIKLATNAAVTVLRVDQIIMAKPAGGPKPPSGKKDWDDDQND
UniProt P18754: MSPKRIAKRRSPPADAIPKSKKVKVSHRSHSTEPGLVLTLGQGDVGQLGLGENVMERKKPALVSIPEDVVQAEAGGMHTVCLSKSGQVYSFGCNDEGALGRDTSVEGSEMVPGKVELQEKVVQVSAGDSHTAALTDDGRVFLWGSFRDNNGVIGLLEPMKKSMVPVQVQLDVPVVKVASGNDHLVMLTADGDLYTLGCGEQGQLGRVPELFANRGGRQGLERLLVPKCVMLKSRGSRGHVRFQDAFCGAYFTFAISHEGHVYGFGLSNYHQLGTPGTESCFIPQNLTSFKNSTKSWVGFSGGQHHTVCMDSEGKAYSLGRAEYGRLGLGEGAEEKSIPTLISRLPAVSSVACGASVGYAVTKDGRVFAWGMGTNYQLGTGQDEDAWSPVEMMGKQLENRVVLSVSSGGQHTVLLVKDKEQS
UniProt Q14739: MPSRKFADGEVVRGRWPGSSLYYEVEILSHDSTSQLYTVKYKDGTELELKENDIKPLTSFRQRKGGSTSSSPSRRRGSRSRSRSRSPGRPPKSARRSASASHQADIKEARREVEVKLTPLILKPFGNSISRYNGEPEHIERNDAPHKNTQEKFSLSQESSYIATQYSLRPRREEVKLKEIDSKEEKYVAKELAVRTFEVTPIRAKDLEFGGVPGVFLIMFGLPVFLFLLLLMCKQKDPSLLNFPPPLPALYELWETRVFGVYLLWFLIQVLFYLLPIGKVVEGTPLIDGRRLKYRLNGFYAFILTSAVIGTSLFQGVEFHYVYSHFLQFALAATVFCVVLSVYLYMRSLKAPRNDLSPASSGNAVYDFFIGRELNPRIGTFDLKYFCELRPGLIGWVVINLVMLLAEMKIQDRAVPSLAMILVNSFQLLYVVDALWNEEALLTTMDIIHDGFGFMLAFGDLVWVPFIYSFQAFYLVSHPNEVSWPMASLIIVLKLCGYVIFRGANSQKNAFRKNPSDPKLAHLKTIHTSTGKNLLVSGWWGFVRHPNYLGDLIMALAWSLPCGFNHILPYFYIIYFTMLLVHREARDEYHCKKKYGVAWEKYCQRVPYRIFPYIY
UniProt Q13547: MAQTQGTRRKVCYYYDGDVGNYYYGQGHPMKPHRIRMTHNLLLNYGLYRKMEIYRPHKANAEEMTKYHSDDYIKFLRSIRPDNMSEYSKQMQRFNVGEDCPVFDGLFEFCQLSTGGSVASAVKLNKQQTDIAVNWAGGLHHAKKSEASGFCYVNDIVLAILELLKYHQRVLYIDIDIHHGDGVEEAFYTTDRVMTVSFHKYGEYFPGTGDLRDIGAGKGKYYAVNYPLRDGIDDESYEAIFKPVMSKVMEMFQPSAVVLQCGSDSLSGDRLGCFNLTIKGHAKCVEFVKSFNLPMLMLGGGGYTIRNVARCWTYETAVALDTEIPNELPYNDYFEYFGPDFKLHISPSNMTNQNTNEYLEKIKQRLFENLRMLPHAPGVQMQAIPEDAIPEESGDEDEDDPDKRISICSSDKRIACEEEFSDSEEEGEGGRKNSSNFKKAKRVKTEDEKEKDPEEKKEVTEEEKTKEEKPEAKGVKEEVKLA
UniProt P53618: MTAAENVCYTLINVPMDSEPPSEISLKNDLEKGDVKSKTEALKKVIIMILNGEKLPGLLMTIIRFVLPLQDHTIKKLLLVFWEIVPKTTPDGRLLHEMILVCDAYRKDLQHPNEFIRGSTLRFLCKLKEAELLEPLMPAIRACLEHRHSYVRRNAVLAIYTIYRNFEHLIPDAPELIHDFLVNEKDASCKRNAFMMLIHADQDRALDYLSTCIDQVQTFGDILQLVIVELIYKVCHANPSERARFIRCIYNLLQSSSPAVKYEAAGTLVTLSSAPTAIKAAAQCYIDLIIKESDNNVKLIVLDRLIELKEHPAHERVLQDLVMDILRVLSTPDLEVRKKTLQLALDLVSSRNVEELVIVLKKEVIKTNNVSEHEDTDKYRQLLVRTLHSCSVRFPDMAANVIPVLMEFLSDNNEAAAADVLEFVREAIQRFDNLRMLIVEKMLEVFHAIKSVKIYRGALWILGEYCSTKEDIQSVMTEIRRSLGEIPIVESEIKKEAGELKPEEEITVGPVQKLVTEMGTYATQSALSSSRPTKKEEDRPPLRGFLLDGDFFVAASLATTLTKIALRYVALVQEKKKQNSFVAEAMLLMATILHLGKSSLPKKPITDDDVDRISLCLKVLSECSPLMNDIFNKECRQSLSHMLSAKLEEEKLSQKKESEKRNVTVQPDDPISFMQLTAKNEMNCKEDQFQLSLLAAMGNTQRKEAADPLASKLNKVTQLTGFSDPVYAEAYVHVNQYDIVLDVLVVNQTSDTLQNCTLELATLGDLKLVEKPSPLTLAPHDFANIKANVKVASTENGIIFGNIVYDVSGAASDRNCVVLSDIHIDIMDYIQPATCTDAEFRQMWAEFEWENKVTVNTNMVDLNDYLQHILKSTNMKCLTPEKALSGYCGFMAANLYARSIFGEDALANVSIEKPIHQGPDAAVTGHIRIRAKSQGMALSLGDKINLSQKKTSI

The target in assay [1] is T1, HA-STREP-tagged SIRT2 (Sirtuin 2) (UniProt Q8IXJ6).
T1 sequence: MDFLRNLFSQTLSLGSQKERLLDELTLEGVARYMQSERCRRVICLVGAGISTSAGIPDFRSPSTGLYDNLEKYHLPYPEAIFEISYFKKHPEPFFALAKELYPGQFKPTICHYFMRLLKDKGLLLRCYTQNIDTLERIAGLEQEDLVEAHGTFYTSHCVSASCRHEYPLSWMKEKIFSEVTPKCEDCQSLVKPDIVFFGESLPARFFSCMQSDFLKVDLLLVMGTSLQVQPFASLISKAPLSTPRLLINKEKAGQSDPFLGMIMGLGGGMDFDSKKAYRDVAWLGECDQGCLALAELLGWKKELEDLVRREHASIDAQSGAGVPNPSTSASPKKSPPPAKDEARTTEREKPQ
The experiment in a line: affinity purification with mass spectrometry + proximity labelling; STREP-HA tandem affinity purification of HA-STREP–SIRT2 and BioID of N- and C-terminal BirA–SIRT2 fusions in stable doxycycline-induced Flp-In T-REx 293 cells; eight samples (whole-cell lysates, cytoplasmic and chromatin fractions); hits ranked by a global score (SAINT probability >0.98, fold change >10).

A further assay deals with T2, ANKLE2–GFP (human) (UniProt Q86XL3).
T2 sequence: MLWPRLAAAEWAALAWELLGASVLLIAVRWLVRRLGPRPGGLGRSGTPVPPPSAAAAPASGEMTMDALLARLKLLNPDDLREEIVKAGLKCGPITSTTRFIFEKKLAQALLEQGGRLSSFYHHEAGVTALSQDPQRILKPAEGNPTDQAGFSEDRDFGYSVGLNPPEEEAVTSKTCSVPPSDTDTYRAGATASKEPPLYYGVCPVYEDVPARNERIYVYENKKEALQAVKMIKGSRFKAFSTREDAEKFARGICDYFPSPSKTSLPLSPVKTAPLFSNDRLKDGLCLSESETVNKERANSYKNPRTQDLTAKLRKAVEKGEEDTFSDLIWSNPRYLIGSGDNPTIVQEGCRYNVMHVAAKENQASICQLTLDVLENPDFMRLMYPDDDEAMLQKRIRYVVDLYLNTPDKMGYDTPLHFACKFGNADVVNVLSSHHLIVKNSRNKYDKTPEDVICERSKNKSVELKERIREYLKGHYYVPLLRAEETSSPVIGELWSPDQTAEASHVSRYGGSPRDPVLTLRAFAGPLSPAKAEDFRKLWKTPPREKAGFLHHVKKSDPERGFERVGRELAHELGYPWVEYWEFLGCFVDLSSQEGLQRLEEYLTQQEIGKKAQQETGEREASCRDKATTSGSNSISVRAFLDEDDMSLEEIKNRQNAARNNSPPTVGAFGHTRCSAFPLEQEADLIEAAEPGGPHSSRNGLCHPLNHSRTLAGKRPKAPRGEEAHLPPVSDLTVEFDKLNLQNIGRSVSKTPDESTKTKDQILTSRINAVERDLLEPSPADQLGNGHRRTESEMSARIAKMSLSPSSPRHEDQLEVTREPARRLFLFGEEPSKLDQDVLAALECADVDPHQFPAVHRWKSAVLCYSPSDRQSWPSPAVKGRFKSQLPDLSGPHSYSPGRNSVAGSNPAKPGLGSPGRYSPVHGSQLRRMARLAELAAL
The experiment in a line: affinity purification with mass spectrometry; ANKLE2–GFP as bait on GFP-Trap_M magnetic beads; only ANKLE2 overexpressed; interactors by mass spectrometry (Table S2).

The target of assay [2] is T3, ANKLE2–GFP (human), Q86XL3.
T3 chain: T2 sequence
Described as above. Particulars: remark: other sources report otherwise.

Assay [3] has as its target T1, HA-STREP-tagged SIRT2 (Sirtuin 2). The experiment in a line: affinity purification with mass spectrometry + proximity labelling; STREP-HA tandem affinity purification of HA-STREP–SIRT2 and BioID of N- and C-terminal BirA–SIRT2 fusions in stable doxycycline-induced Flp-In T-REx 293 cells; eight samples (whole-cell lysates, cytoplasmic and chromatin fractions); hits ranked by a global score (SAINT probability >0.98, fold change >10). This is another data set of the same source.

Like-named read-outs stand apart in the source and are kept apart here. These are yes or no findings as the source states them, for the method shown. Binding seen in cells or lysates may run through a third protein. A yes stands for co-enrichment or nearness to the bait. Other partners may have been found. Tags and fused reporters may be left off the sequences shown.

Regarding “condensin subunit CND2 (also known as NCAPH) (endogenous prey of the screen) (from UniProt Q15003 1-741)”, in assay [1], the binding entry is recorded as “binds”.
Turning to “tubulin (β-4B chain; TBB4B) (from UniProt P68371 1-445)”, the binding result in assay [1] was “binds”.
In the case of “T-complex protein 1 subunit θ (TCPQ) (from UniProt P50990 1-548)”, the binding result in assay [1] was “binds”.
Still for that read-out and setting: for “RCC1 (endogenous prey of the screen) (from UniProt P18754 1-421)” the value was “binds”; for “lamin B receptor (LBR) (from UniProt Q14739 1-615)”, “binds”.
In the case of “HDAC1 (endogenous prey of the screen) (from UniProt Q13547 1-482) (enzyme)”, the binding entry in assay [1] is “binds”.
Same read-out and setting: next, “coatomer complex protein COPB1 (endogenous prey of the screen) (from UniProt P53618 1-953)”: “binds”.

B1: SIRT2 (endogenous, found with ANKLE2–GFP) (enzyme, UniProt Q8IXJ6 1-389)
chain: MAEPDPSHPLETQAGKVQEAQDSDSDSEGGAAGGEADMDFLRNLFSQTLSLGSQKERLLDELTLEGVARYMQSERCRRVICLVGAGISTSAGIPDFRSPSTGLYDNLEKYHLPYPEAIFEISYFKKHPEPFFALAKELYPGQFKPTICHYFMRLLKDKGLLLRCYTQNIDTLERIAGLEQEDLVEAHGTFYTSHCVSASCRHEYPLSWMKEKIFSEVTPKCEDCQSLVKPDIVFFGESLPARFFSCMQSDFLKVDLLLVMGTSLQVQPFASLISKAPLSTPRLLINKEKAGQSDPFLGMIMGLGGGMDFDSKKAYRDVAWLGECDQGCLALAELLGWKKELEDLVRREHASIDAQSGAGVPNPSTSASPKKSPPPAKDEARTTEREKPQ
With B1, in the assay with ANKLE2–GFP (human), the binding result is recorded as “binds”.

B2: barrier-to-autointegration factor (BAF), O75531 1-89 (protein)
chain: MTTSQKHRDFVAEPMGEKPVGSLAGIGEVLGKKLEERGFDKAYVVLGQFLVLKKDEDLFREWLKDTCGANAKQSRDCFGCLREWCDAFL
Take B2: the binding result in assay [2] is given as “binds”.

B3: kinetochore-associated protein SKAP (also known as KNSTRN) (endogenous prey of the screen) (protein, UniProt Q9Y448 1-316)
chain: MAAPEAPPLDRVFRTTWLSTECDSHPLPPSYRKFLFETQAADLAGGTTVAAGNLLNESEKDCGQDRRAPGVQPCRLVTMTSVVKTVYSLQPPSALSGGQPADTQTRATSKSLLPVRSKEVDVSKQLHSGGPENDVTKITKLRRENGQMKATDTATRRNVRKGYKPLSKQKSEEELKDKNQLLEAVNKQLHQKLTETQGELKDLTQKVELLEKFRDNCLAILESKGLDPALGSETLASRQESTTDHMDSMLLLETLQEELKLFNETAKKQMEELQALKVKLEMKEERVRFLEQQTLCNNQVNDLTTALKEMEQLLEM
With B3, in assay [3], the binding entry is “binds”.

B4: ankyrin and LEM domain-containing protein 2 (ANKLE2), endogenous (protein, UniProt Q86XL3 1-938)
chain: T2 sequence
Consider B4, for which the binding entry in assay [3] is listed as “binds”.

B5: coatomer complex protein COPG2 (endogenous prey of the screen) (protein, UniProt Q9UBF2 1-871)
chain: MIKKFDKKDEESGSGSNPFQHLEKSAVLQEARIFNETPINPRRCLHILTKILYLLNQGEHFGTTEATEAFFAMTRLFQSNDQTLRRMCYLTIKEMATISEDVIIVTSSLTKDMTGKEDVYRGPAIRALCRITDGTMLQAIERYMKQAIVDKVSSVSSSALVSSLHMMKISYDVVKRWINEAQEAASSDNIMVQYHALGVLYHLRKNDRLAVSKMLNKFTKSGLKSQFAYCMLIRIASRLLKETEDGHESPLFDFIESCLRNKHEMVIYEAASAIIHLPNCTARELAPAVSVLQLFCSSPKPALRYAAVRTLNKVAMKHPSAVTACNLDLENLITDSNRSIATLAITTLLKTGSESSVDRLMKQISSFVSEISDEFKVVVVQAISALCQKYPRKHSVMMTFLSNMLRDDGGFEYKRAIVDCIISIVEENPESKEAGLAHLCEFIEDCEHTVLATKILHLLGKEGPRTPVPSKYIRFIFNRVVLENEAVRAAAVSALAKFGAQNESLLPSILVLLQRCMMDTDDEVRDRATFYLNVLQQRQMALNATYIFNGLTVSVPGMEKALHQYTLEPSEKPFDMKSIPLAMAPVFEQKAEITLVATKPEKLAPSRQDIFQEQLAAIPEFLNIGPLFKSSEPVQLTEAETEYFVRCIKHMFTNHIVFQFDCTNTLNDQLLEKVTVQMEPSDSYEVLSCIPAPSLPYNQPGICYTLVRLPDDDPTAVAGSFSCTMKFTVRDCDPNTGVPDEDGYDDEYVLEDLEVTVSDHIQKVLKPNFAAAWEEVGDTFEKEETFALSSTKTLEEAVNNIITFLGMQPCERSDKVPENKNSHSLYLAGIFRGGYDLLVRSRLALADGVTMQVTVRSKERTPVDVILASVG
As for B5, in assay [3], the binding result is reported as “binds”.
